Measurements taken from PubChem BioAssay AID256 (DTP/NCI, 2004).
The list shows only some results of the screen, not a fair sample: it gathers tests that were run many times, whatever their T/C, doses with no T/C, and many T/C values between a quarter and a half above the control. Further doses and runs are listed elsewhere. T/C gives the treated animals as a percentage of the vehicle group. Some doses have a count of surviving animals in place of a T/C: the source files T/C as zero there, which appears to mark a toxic dose or a test without result, not a measured value. Some doses without a T/C left all or most animals alive at the check, yet need not have been tolerated: survival well below the control is almost never listed, so the zero probably covers shortened survival too. Survivors were counted at the toxicity check, usually on the fifth day, unless a day is given; later deaths do not show. Schedule codes are those of the source, read here as Q, the interval in days (D) or hours (H), X, the number of doses. Some doses were run more than once; the values are given in rising order. Some molecules as drawn cover several salts, stereoisomers or complexes of the source; a dose is that of the sample tested. For survival time, the PubChem record calls one and a half times the control and up active, and a quarter to a half above the control has no call in these data; cut-offs in other NCI protocols can differ. Some T/C values are followed by the survivors on the day toxicity was checked, most often the fifth; without a count, all were alive then.

Tested on: CD2F1 mice, L1210 leukemia ip, survival T/C
Assay: NCI In Vivo Anticancer Drug Screen. Data for tumor model L1210 Leukemia (intraperitoneal) in CD2F1 (CDF1) mice
Conditions: higher T/C = longer survival
Outline: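 Each value reflects a quotient of treated over vehicle control outcomes in mice with a transplanted tumor.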

[1] = T/C endpoint: mean survival time, dose: 200.0 mg/kg/injection, schedule: Q04DX003 (ip), vehicle: saline with Tween-80
[2] = T/C endpoint: mean survival time, dose: 400.0 mg/kg/injection, schedule: Q04DX003 (ip), vehicle: saline with Tween-80
[3] = T/C endpoint: mean survival time, dose: 300.0 mg/kg/injection, schedule: Q01DX001 (ip), vehicle: saline
[4] = T/C endpoint: mean survival time, dose: 400.0 mg/kg/injection, schedule: Q04DX003 (ip), vehicle: saline
[5] = T/C endpoint: mean survival time, dose: 100.0 mg/kg/injection, schedule: Q04DX003 (ip), vehicle: saline
[6] = T/C endpoint: mean survival time, dose: 200.0 mg/kg/injection, schedule: Q01DX009 (ip), vehicle: saline with Tween-80
[7] = T/C endpoint: mean survival time, dose: 400.0 mg/kg/injection, schedule: Q01DX009 (ip), vehicle: saline with Tween-80
[8] = T/C endpoint: median survival time, dose: 400.0 mg/kg/injection, schedule: Q01DX009 (ip), vehicle: saline with Tween-80
[9] = T/C endpoint: mean survival time, dose: 400.0 mg/kg/injection, schedule: Q01DX001 (ip), vehicle: saline with Tween-80
[10] = T/C endpoint: mean survival time, dose: 75.0 mg/kg/injection, schedule: Q01DX001 (ip), vehicle: saline
[11] = T/C endpoint: mean survival time, dose: 150.0 mg/kg/injection, schedule: Q01DX001 (ip), vehicle: other
[12] = T/C endpoint: mean survival time, dose: 150.0 mg/kg/injection, schedule: Q01DX001 (ip), vehicle: saline
[13] = T/C endpoint: mean survival time, dose: 300.0 mg/kg/injection, schedule: Q01DX001 (ip), vehicle: other
[14] = T/C endpoint: mean survival time, dose: 25.0 mg/kg/injection, schedule: Q01DX009 (ip), vehicle: saline with Tween-80

## C1CCC(NC2=NCCO2)CC1
[1]
  survivor count: 0 of 6
[2]
  survivor count: 0 of 6

## COc1cc2ccc(-c3cc(C(=O)O)c4ccccc4n3)cc2cc1OC
[3]
  survivor count: 3 of 6

## N#Cc1cn(C2CCCCC2)c2ncccc12
[4]
  survivor count: 1 of 3

## CC(=O)Oc1ccc(OC(C)=O)c2c1C(=O)C=CC2=O
T/C endpoint: mean survival time, dose: 1.56 mg/kg/injection, schedule: Q04DX002 (ip), vehicle: alcohol
  survivor count: 3 of 3

## CCCCN(CCCC)CCCC
T/C endpoint: mean survival time, dose: 200.0 mg/kg/injection, schedule: Q01DX001 (ip), vehicle: saline
  survivor count: 0 of 3
T/C endpoint: mean survival time, dose: 400.0 mg/kg/injection, schedule: Q01DX001 (ip), vehicle: saline
  survivor count: 0 of 3

## O=C1NCCS1
[3]
  survivor count: 3 of 6

## CNC(CCNCCc1ccccc1)CNCCc1ccccc1 (stereo unspecified)
[3]
  survivor count: 0 of 6

## CCCc1cccc[n+]1CC(=O)c1ccccc1
[5]
  survivor count: 1 of 6
T/C endpoint: mean survival time, dose: 200.0 mg/kg/injection, schedule: Q04DX003 (ip), vehicle: saline
  survivor count: 0 of 6
[4]
  survivor count: 0 of 6

## NC(=S)N/N=C/c1ccc(-c2ccccc2)cc1
[1]
  survivor count: 4 of 6
[2]
  survivor count: 0 of 6

## Nc1ncnc2c1c1c(=O)[nH]nnc1n2C1OC(CO)C(O)C1O (stereo unspecified)
T/C endpoint: mean survival time, dose: 100.0 mg/kg/injection, schedule: Q01DX009 (ip), vehicle: distilled water + Tween-80
  survivor count: 4 of 4
T/C endpoint: mean survival time, dose: 200.0 mg/kg/injection, schedule: Q01DX005 (ip), vehicle: water
  survivor count: 5 of 5
T/C endpoint: mean survival time, dose: 200.0 mg/kg/injection, schedule: Q01DX009 (ip), vehicle: distilled water + Tween-80
  survivor count: 3 of 4
T/C endpoint: mean survival time, dose: 400.0 mg/kg/injection, schedule: Q01DX005 (ip), vehicle: water
  survivor count: 0 of 5

## CCNCC(=O)O[C@]1(CC)C(=O)OCc2c1cc1n(c2=O)Cc2cc3ccccc3nc2-1
T/C endpoint: median survival time, dose: 15.0 mg/kg/injection, schedule: Q04DX002 (ip), vehicle: saline
  T/C: 127 % of control
T/C endpoint: median survival time, dose: 60.0 mg/kg/injection, schedule: Q04HX004 (iv), vehicle: dextrose
  survivor count: 0 of 6

## CNC(=S)NNc1ccc(Cl)cc1
T/C endpoint: mean survival time, dose: 200.0 mg/kg/injection, schedule: Q01DX009 (ip), vehicle: other
  survivor count: 0 of 6

## Clc1ccc2nnnn2n1
[6]
  survivor count: 3 of 6
[7]
  survivor count: 0 of 6 and 2 of 6
[8]
  survivor count: 1 of 6 and 3 of 6

## O=C1CC2CC=CCC2C(=O)O1 (stereo unspecified)
[3]
  survivor count: 2 of 6

## CCC(=O)C(C)(C)c1ccccc1 (tested in a mixture with another compound)
[9]
  survivor count: 3 of 6

## CS(=O)(=O)OCCOS(C)(=O)=O
[7]
  T/C: 136 % of control

## O=C1c2ccc([N+](=O)[O-])cc2-c2c1cccc2[N+](=O)[O-]
T/C endpoint: mean survival time, dose: 100.0 mg/kg/injection, schedule: Q04DX002 (ip), vehicle: saline with Tween-80
  survivor count: 3 of 3

## CC1=NC2(CCCCC2)C[N+]1(Cc1ccccc1)Cc1ccccc1
T/C endpoint: mean survival time, dose: 100.0 mg/kg/injection, schedule: Q01DX009 (ip), vehicle: acetone
  survivor count: 2 of 6

## O=C1CCCC2C3CC(CN12)C1CCCCN1C3 (stereo unspecified)
[1]
  survivor count: 3 of 6
[2]
  survivor count: 0 of 6

## CN(C)/N=N/c1[nH]ncc1C(N)=O
T/C endpoint: mean survival time, dose: 300.0 mg/kg/injection, schedule: Q01DX001 (oral), vehicle: saline
  T/C: 142 % of control
T/C endpoint: mean survival time, dose: 600.0 mg/kg/injection, schedule: Q01DX001 (oral), vehicle: saline
  T/C: 139 % of control [5 of 6 alive]

## CN(C)CCOc1ccc2c(c1)C/C(=C/c1ncc([N+](=O)[O-])n1C)C2=O
[6]
  survivor count: 6 of 6

## CCC1(c2ccccc2)C(=O)N(Cl)C(=O)N(Cl)C1=O
T/C endpoint: mean survival time, dose: 200.0 mg/kg/injection, schedule: Q01DX001 (ip), vehicle: saline with Tween-80
  survivor count: 3 of 6
[9]
  survivor count: 2 of 6

## CN(C)CC1CCC(CN(C)C)C1=O (stereo unspecified)
T/C endpoint: mean survival time, dose: 75.0 mg/kg/injection, schedule: Q01DX001 (ip), vehicle: other
  survivor count: 0 of 6
[10]
  survivor count: 0 of 6
[11]
  survivor count: 0 of 6
[12]
  survivor count: 0 of 6
[13]
  survivor count: 0 of 6
[3]
  survivor count: 0 of 6

## C#CC1(OC(=O)Nc2ccccc2)CCCCC1
T/C endpoint: mean survival time, dose: 400.0 mg/kg/injection, schedule: Q04DX002 (ip), vehicle: saline with Tween-80
  survivor count: 3 of 3

## [I][Pt+2][I].[NH-]c1cccc(F)c1.[NH-]c1cccc(F)c1
T/C endpoint: mean survival time, dose: 200.0 mg/kg/injection, schedule: Q04DX003 (ip), vehicle: distilled water + Tween-80
  survivor count: 1 of 6

## O=[N+]([O-])c1c[c]([Hg][Cl])c(O)[c]([Hg][Cl])c1
T/C endpoint: mean survival time, dose: 25.0 mg/kg/injection, schedule: Q04DX003 (ip), vehicle: saline with Tween-80
  survivor count: 3 of 6
T/C endpoint: mean survival time, dose: 50.0 mg/kg/injection, schedule: Q04DX003 (ip), vehicle: saline with Tween-80
  survivor count: 2 of 6

## O=C(Nc1cc(Cl)ccc1C(=O)O)c1cccc(C[n+]2ccccc2)c1
T/C endpoint: median survival time, dose: 800.0 mg/kg/injection, schedule: Q01DX005 (ip), vehicle: saline with Tween-80
  survivor count: 0 of 6

## CC(CCc1ccccc1)NC(C)C(O)c1ccc(O)cc1 (stereo unspecified)
[1]
  survivor count: 4 of 6
[2]
  survivor count: 1 of 6

## CCCCC(CC)COP(OCC(CC)CCCC)OCC(CC)CCCC (stereo unspecified)
[7]
  survivor count: 2 of 6

## CC[C@H]1CN2CCc3cc(OC)c(OC)cc3[C@@H]2C[C@@H]1C[C@@H]1c2cc(OC)c(OC)cc2CCN1N=O
[5]
  survivor count: 6 of 6

## C=C[CH2][Sn]([CH2]C=C)([c]1ccccc1)[c]1ccccc1
T/C endpoint: mean survival time, dose: 12.5 mg/kg/injection, schedule: Q01DX009 (ip), vehicle: saline with Tween-80
  survivor count: 3 of 6
[14]
  survivor count: 0 of 6
T/C endpoint: median survival time, dose: 50.0 mg/kg/injection, schedule: Q04DX002 (ip), vehicle: saline with Tween-80
  survivor count: 0 of 3
T/C endpoint: median survival time, dose: 100.0 mg/kg/injection, schedule: Q04DX002 (ip), vehicle: saline with Tween-80
  survivor count: 0 of 3

## CN=NC(C)C
[14]
  T/C: 133 % of control
T/C endpoint: mean survival time, dose: 50.0 mg/kg/injection, schedule: Q01DX009 (ip), vehicle: saline with Tween-80
  T/C: 141 % of control
T/C endpoint: mean survival time, dose: 100.0 mg/kg/injection, schedule: Q01DX009 (ip), vehicle: saline with Tween-80
  T/C: 138 % of control

## CC(Br)C1(c2ccccc2)OCCO1 (stereo unspecified)
[6]
  survivor count: 3 of 6
[7]
  survivor count: 0 of 6

## CN1NC=Nc2c(SCc3ccccc3)ncnc21
[11]
  survivor count: 0 of 6
[13]
  survivor count: 0 of 6

## CCCCCCCCCC(=O)NCC[N+](C)(CC)CC
[10]
  survivor count: 1 of 6
T/C endpoint: mean survival time, dose: 80.0 mg/kg/injection, schedule: Q01DX001 (ip), vehicle: saline
  survivor count: 3 of 6
[12]
  survivor count: 0 of 6
[3]
  survivor count: 0 of 6

## ON1C=CC2C=CC1c1ccccc12 (stereo unspecified)
T/C endpoint: median survival time, dose: 400.0 mg/kg/injection, schedule: Q04DX002 (ip), vehicle: saline with Tween-80
  survivor count: 2 of 3

## COc1cc(C(C)c2cc3c(cc2OCCO)OCO3)cc(OC)c1OC (stereo unspecified)
T/C endpoint: median survival time, dose: 200.0 mg/kg/injection, schedule: Q01DX009 (ip), vehicle: saline with Tween-80, evaluated on day 25
  T/C: 143 % of control
T/C endpoint: median survival time, dose: 200.0 mg/kg/injection, schedule: Q01DX009 (ip), vehicle: saline with Tween-80, evaluated on day 30
  T/C: 133 % of control [4 of 6 alive]
[8]
  survivor count: 0 of 6 and 1 of 6

## Cc1cc(C)c([S-])c(C)c1.[Cu+]
T/C endpoint: mean survival time, dose: 18.8 mg/kg/injection, schedule: Q04DX003 (ip), vehicle: saline
  survivor count: 3 of 6
